Results on 3 substances are retold here after paper PMC4202173.

The chains behind the UniProt entries cited, without tags or fusion partners. Where a name states a change or a piece, a line headed by the entry shows the natural chain unless it says otherwise.
UniProt Q96RK0: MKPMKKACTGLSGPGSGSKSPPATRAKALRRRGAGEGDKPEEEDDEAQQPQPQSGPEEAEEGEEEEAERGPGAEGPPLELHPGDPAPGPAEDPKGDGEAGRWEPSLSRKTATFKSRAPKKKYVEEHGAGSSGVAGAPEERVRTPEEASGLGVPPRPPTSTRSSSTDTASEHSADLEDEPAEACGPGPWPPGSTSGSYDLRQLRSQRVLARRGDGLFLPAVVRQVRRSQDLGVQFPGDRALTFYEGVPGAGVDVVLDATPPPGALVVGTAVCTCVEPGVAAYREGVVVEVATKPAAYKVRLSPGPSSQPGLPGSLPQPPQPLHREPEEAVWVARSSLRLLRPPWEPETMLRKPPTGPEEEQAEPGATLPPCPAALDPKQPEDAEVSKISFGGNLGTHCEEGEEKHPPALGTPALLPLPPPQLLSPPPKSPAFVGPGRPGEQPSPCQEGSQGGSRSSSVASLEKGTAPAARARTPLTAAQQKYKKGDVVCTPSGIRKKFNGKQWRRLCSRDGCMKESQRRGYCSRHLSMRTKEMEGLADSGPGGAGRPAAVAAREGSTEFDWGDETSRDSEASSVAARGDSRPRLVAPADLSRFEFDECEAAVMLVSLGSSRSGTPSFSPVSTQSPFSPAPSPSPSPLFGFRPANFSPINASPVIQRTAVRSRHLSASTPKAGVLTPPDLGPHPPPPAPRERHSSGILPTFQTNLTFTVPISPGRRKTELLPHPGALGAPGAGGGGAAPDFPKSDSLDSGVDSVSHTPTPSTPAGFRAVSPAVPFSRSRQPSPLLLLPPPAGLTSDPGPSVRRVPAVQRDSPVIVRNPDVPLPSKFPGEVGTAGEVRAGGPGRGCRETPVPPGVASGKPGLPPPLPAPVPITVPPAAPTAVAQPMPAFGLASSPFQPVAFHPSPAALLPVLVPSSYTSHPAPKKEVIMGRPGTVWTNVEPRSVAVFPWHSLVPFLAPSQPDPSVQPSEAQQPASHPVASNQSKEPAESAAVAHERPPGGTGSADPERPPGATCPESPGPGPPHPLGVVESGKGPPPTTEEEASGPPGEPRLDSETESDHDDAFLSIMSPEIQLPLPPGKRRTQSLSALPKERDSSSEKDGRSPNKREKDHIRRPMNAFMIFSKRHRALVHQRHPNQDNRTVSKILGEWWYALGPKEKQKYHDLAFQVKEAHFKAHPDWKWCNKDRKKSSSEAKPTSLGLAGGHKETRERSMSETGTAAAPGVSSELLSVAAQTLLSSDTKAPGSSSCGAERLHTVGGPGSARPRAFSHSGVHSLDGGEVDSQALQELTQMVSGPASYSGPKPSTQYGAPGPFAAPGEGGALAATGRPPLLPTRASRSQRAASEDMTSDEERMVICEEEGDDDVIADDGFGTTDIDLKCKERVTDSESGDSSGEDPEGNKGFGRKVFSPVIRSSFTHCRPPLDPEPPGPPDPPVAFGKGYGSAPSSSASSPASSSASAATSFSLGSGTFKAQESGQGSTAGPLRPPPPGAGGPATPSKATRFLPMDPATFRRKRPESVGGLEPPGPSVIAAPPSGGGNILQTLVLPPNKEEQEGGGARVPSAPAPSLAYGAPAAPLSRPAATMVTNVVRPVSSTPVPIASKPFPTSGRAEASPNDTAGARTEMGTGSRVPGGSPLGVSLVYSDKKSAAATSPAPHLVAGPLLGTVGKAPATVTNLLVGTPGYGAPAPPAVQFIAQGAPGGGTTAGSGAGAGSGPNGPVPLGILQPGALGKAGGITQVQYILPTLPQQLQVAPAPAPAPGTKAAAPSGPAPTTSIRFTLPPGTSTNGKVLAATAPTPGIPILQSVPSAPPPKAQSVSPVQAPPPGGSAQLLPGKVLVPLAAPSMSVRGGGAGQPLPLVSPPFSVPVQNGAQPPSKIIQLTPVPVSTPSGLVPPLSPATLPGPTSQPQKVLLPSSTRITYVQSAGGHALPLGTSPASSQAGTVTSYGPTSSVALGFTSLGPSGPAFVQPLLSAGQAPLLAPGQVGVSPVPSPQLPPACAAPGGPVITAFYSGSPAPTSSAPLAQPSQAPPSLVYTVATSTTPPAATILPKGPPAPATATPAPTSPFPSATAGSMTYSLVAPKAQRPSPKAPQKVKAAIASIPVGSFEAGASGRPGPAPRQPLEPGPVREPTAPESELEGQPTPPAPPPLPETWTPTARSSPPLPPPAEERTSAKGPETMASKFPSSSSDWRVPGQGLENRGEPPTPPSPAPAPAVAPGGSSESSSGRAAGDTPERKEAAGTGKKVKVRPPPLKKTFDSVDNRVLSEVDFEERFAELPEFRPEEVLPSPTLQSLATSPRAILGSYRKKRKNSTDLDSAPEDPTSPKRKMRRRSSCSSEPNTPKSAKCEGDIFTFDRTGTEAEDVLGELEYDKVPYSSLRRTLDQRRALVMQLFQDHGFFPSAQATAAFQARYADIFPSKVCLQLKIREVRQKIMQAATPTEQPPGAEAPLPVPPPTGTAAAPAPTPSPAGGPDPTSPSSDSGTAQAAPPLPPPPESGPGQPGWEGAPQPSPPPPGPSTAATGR
UniProt P53396: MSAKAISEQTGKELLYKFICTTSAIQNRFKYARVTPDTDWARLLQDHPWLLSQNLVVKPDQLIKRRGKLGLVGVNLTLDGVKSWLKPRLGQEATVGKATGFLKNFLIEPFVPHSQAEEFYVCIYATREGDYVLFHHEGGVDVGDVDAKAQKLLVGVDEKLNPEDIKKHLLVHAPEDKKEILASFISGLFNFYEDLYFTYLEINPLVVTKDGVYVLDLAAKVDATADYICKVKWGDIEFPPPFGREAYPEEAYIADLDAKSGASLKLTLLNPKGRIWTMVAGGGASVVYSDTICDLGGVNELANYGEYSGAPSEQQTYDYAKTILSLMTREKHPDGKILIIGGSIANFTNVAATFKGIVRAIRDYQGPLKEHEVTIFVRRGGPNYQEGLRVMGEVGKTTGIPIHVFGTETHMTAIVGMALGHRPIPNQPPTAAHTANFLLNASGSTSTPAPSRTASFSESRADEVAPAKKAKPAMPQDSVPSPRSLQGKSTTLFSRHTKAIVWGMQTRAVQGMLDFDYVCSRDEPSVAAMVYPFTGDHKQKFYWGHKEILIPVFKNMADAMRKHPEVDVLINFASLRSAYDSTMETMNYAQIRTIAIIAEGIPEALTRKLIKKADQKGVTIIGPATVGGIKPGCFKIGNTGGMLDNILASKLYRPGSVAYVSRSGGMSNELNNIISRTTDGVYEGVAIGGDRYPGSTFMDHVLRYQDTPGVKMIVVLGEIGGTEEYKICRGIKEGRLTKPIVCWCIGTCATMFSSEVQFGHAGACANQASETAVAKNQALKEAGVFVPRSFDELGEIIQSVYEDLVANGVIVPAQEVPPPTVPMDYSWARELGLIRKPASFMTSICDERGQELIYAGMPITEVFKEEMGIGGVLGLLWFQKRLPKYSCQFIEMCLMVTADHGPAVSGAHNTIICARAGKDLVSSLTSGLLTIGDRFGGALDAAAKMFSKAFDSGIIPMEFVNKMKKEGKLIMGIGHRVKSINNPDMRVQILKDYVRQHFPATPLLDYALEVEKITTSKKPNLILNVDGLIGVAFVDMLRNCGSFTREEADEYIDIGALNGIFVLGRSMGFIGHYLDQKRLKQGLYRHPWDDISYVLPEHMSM

No constants are given. Whether binding was seen depends on the method and setting. Binding seen in cells or lysates may run through a third protein. Binding calls can cover weak binding; strength is not graded here.

Assay [1] addresses N-terminally FLAG fused CIC-S (human) (UniProt Q96RK0). In words: co-IP; FLAG-tagged CIC (bait) and V5 tagged ACLY (prey) co-expressed in HEK293 cells; IP with anti-FLAG antibody, blots with anti-FLAG and anti-V5.
Assay [2] deals with endogenous Capicua short isoform (CIC-S) (human (endogenous in HEK)) (UniProt Q96RK0). The assay is described as follows: co-IP; endogenous proteins, cytosolic (nucleus-free and mitochondria-free) HEK cell fraction; IP with anti-CIC antibody and blot for ACLY, and reciprocal IP with anti-ACLY antibody and blot for CIC-S; rabbit IgG as control.
In assay [3] the target is ATP-citrate synthase (ATP citrate-lyase), endogenous (human) (UniProt P53396). The description is as above.

“ACLY fused to a C-terminal V5 epitope (from UniProt P53396 1-1101) (enzyme)”: the binding result in assay [1] is given as “binds”.
For “ATP-citrate synthase (ATP citrate-lyase), endogenous (from UniProt P53396 1-1101) (enzyme)”, the binding entry in assay [2] was “binds”.
“endogenous Capicua short isoform (CIC-S) (from UniProt Q96RK0-2)”: in assay [3], the binding entry is on record as “binds”.
